From PubChem BioAssay AID1347075 (National Center for Advancing Translational Sciences (NCATS), 2019)
In all, about 400,000 compounds went through this assay and about 5,500 (1.4%) were called active. Inconclusive means that the source gave no clear call. Such entries were picked first, then a sample of the others. Calls come from the whole dose curve; as a rule, active = well fitted cell-killing curve with a large enough effect; inconclusive = small, poorly fitted or top-dose-only effect, or effect the other way; inactive = flat fitted curve, though single readings scatter. A potency beside an inconclusive call is a rough fit, not a confirmed value.

Test: qHTS assay for MDR1-selective chemotherapeutics: Primary screen using the parental adenocarcinoma cell KB-3-1; note: nearly all actives have a fitted effect of over 60% in size
Conditions: KB-3-1 viability, CellTiter-Glo ATP luminescence, 72 h; activity change, negative = cytotoxic: at 46.1 µM (top of the series)
In short: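 Viability of parental KB-3-1 cells, measured by CellTiter-Glo luminescence, followed a 72 h incubation at 37 °C with pinned compounds in phenol-red-free DMEM containing 10% FBS.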
% is set by controls: 0 for no effect and ±100 for the full control effect; potency is the fitted concentration of half-maximal effect.

Which Potency does the source give for `COc1ccccc1-c1nc(SCC(=O)Nc2ccccc2F)n[nH]1` here?
The Potency was inconclusive: 29.1 µM [cytotoxic, single point].

With `CC(SC(C)C(=O)NN=Cc1c[nH]c2ccccc12)C(=O)NN=Cc1c[nH]c2ccccc12` (stereo not given) as the molecule, how does the “activity change, negative = cytotoxic” value read?
The value was inactive: 15%.

With `C=C(C)CSc1cc(C)nc2c(-c3ccccc3)c(C)nn12` as the molecule, how does the Potency read?
The Potency was inconclusive: 25.9 µM [cytotoxic, single point].

For `COc1cc(C#N)ccc1OCC(=O)c1ccc2c(c1)OCCO2`, which Potency is on record?
The Potency was inconclusive: 18.4 µM [cytotoxic, single point].

Which Potency does the source give for `Cc1ccc(NC(C)C(=O)N/N=C/c2ccc([N+](=O)[O-])s2)cc1` (stereo not given) here?
The Potency was inconclusive: 29.1 µM [cytotoxic, single point].

With `O=C(O)C(c1ccccc1)C1(O)CCC1` (stereo not given) as the molecule, how does the “activity change, negative = cytotoxic” value read?
Its value is inactive: -1.05%.

For `CCCCn1c(SC(C)C(N)=O)nc2cc(C(=O)OC)ccc2c1=O` (stereo not given), which “activity change, negative = cytotoxic” value is on record?
Its value is inactive: 15.3%.

For `CN(Cc1ccc(Cl)cc1Cl)C(=O)c1cccc(S(=O)(=O)NCc2ccccc2)c1`, which Potency is on record?
Its Potency is inconclusive: 29.1 µM [cytotoxic, single point].

For `CC(=O)N1CCN(S(=O)(=O)c2ccc3c(c2)OCCO3)CC1`, which activity change, negative = cytotoxic is on record?
The activity change, negative = cytotoxic was inconclusive: -18%.

For `O=C(NCc1ccc(F)cc1)C(c1ccccc1)N(C(=O)c1csnn1)c1ccccc1` (stereo not given), which “activity change, negative = cytotoxic” value is on record?
The value was inactive: -9.32%.

With `O=C(CNC(=O)Cc1ccccc1)NCC(=O)OCC(=O)c1cccc2ccccc12` as the molecule, how does the Potency read?
The Potency was inconclusive: 14.6 µM [rising, partial curve, poor fit].

With `O=C(Nc1ccc(C(=O)Nc2ccccc2Cl)cc1)c1cccnc1` as the molecule, how does the “activity change, negative = cytotoxic” value read?
The value was inactive: 27.4%.

With `C/C(=C\C(=O)c1ccc(Br)cc1)NNC(=O)c1ccc(O)cc1` as the molecule, how does the Potency read?
The Potency was inconclusive: 29.1 µM [cytotoxic, single point].

With `Cc1ccccc1N=Nc1c(C)[nH]n(C(N)=S)c1=O` as the molecule, how does the Potency read?
The Potency was inconclusive: 32.6 µM [cytotoxic, single point].

For `OCCC1CN(Cc2cccnc2)CCN1CCc1ccccc1` (stereo not given), which activity change, negative = cytotoxic is on record?
Its activity change, negative = cytotoxic is inconclusive: -40.5%.

With `Cc1c(C)c(C)c2[nH]c(=S)[nH]c2c1C` as the molecule, how does the Potency read?
Its Potency is inconclusive: 25.9 µM [cytotoxic, partial curve, poor fit].

For `CCOC(=O)c1ccc(Nc2c(-c3ccc(OC)cc3)nc3nc[nH]n23)cc1`, which “activity change, negative = cytotoxic” value is on record?
Its value is inactive: -5.93%.

For `COc1ccccc1C#CC1=CC(=O)C[C@H](c2ccc(F)cc2)C1`, which Potency is on record?
Its Potency is inconclusive: 16.4 µM [cytotoxic, single point].

With `COC(=O)c1ccccc1NC(=O)C1CC=CCC1C(=O)O` (stereo not given) as the molecule, how does the “activity change, negative = cytotoxic” value read?
The value was inactive: 3.87%.

For `C=C(C)CNC(=S)Nc1cccc2cnccc12`, which “activity change, negative = cytotoxic” value is on record?
The value was inactive: -22.6%.

With `Cc1cc(C)n2c(Nc3c(C)cccc3C)c(CCc3ccccc3)nc2n1` as the molecule, how does the Potency read?
Its Potency is inconclusive: 32.6 µM [cytotoxic, single point].

With `CSC1=C(C#N)C(C)C2=C(CC(C)(C)CC2=O)N1` (stereo not given) as the molecule, how does the Potency read?
The Potency was inconclusive: 23.1 µM [cytotoxic, single point].

Which “activity change, negative = cytotoxic” value does the source give for `CCOC(=O)c1cc2c(=O)n3ccccc3nc2n(CCCOC)c1=NC(=O)c1c(-c2c(F)cccc2Cl)noc1C` here?
The value was inactive: 12.1%.

With `CCOc1cc(/C=N\NC(=O)c2ccc(NC(=O)CC)cc2)ccc1OC(=O)c1ccccc1` as the molecule, how does the Potency read?
Its Potency is inconclusive: 18.4 µM [cytotoxic, single point].

With `CCC(=O)N1CCc2cc(CNC(=O)Nc3cc(OC)c(OC)c(OC)c3)ccc21` as the molecule, how does the “activity change, negative = cytotoxic” value read?
The value was inactive: 0.0897%.

With `NC(=O)c1ccccc1NC(=O)c1ccccc1Cl` as the molecule, how does the “activity change, negative = cytotoxic” value read?
The value was inactive: 2.1%.

With `COC(=O)C1=CN(c2ccc(F)cc2)C=C(C(=O)OC)C1c1cccc(Br)c1` as the molecule, how does the Potency read?
Its Potency is inconclusive: 18.4 µM [cytotoxic, single point].

With `COc1ccc(C(=O)Nc2cccc(OC)c2)cc1` as the molecule, how does the Potency read?
Its Potency is inconclusive: 18.4 µM [cytotoxic, partial curve, poor fit].

For `O=C(COc1ccc2ccccc2c1)Nc1ccc(Br)cc1C(=O)O`, which Potency is on record?
The Potency was inconclusive: 29.1 µM [cytotoxic, single point].

With `C=CCOc1ccc(C=CC(=O)c2c(O)c(OC)c(OC)c(OC)c2OC)cc1` as the molecule, how does the Potency read?
The Potency was inconclusive: 29.1 µM [cytotoxic, single point].

Which “activity change, negative = cytotoxic” value does the source give for `COC(=O)c1c(NC(=O)c2ccccc2)sc2c1CC(C)(C)NC2(C)C` here?
Its value is inactive: -0.0458%.

Which Potency does the source give for `Cc1ccc(-c2cc(-c3ccccc3)c3c(N)c(S(C)(=O)=O)sc3n2)cc1` here?
The Potency was inconclusive: 29.1 µM [cytotoxic, single point].

Which Potency does the source give for `Cc1cccc(N2CCN(C(=O)Cn3c(C)c4cnn(-c5ccccc5)c(=O)c4c3C)CC2)c1C` here?
The Potency was inconclusive: 11.6 µM [cytotoxic, partial curve, poor fit].

Which Potency does the source give for `c1ccc(-c2ccc3c(c2)c2c4n3CCN=C4CCC2)cc1` here?
The Potency was inconclusive: 8.2 µM [cytotoxic, partial curve, poor fit].

Which Potency does the source give for `O=C(N/N=C/c1ccccn1)c1ccc(NC(=O)c2cccc([N+](=O)[O-])c2)cc1` here?
Its Potency is inconclusive: 0.0073 µM [rising, full curve].

For `CC(C)(COC(=O)Nc1ccccc1)COC(=O)Nc1ccccc1`, which Potency is on record?
The Potency was inconclusive: 0.291 µM [rising, full curve].

With `Cc1ccc(NC(=O)C(OC(=O)c2ccc(C=O)cc2)c2ccccc2)cc1Cl` (stereo not given) as the molecule, how does the “activity change, negative = cytotoxic” value read?
The value was inactive: 3.09%.

With `Cc1nnc(CN(C)C(=O)c2cc(COc3ccc(C)c(C)c3)on2)o1` as the molecule, how does the “activity change, negative = cytotoxic” value read?
Its value is inactive: 16.1%.

Which Potency does the source give for `O=C1NC(=Nc2cccnc2)S/C1=C/c1ccc(F)cc1` here?
Its Potency is inconclusive: 16.4 µM [cytotoxic, single point].

For `Cc1ccccc1Oc1nc2c(C)cccn2c(=O)c1/C=C(\C#N)C(=O)Nc1c(C)n(C)n(-c2ccccc2)c1=O`, which “activity change, negative = cytotoxic” value is on record?
Its value is inactive: 2.85%.

Which Potency does the source give for `Nc1nc(Nc2ccccc2)sc1C(=O)c1ccccc1` here?
Its Potency is inconclusive: 29.1 µM [cytotoxic, single point].

With `CC(C)(C)NC(=O)NC(=O)CN1CCN(c2ncc(C(F)(F)F)cc2Cl)CC1` as the molecule, how does the Potency read?
Its Potency is inconclusive: 25.9 µM [cytotoxic, partial curve, poor fit].

With `CCOC(=O)C1CCCN(C(=O)Cn2ncc3c(C)n(Cc4ccc(Cl)cc4)c(C)c3c2=O)C1` (stereo not given) as the molecule, how does the Potency read?
The Potency was inconclusive: 20.6 µM [cytotoxic, single point].

Which “activity change, negative = cytotoxic” value does the source give for `CCCCNC(=O)CCc1c(C)nc2nc(-c3cc(OC)cc(OC)c3)nn2c1C` here?
The value was inactive: 2.47%.

Which Potency does the source give for `Cc1ccc(F)c(C2C3C=CCC(c4cccc(-c5ccc(N(C)C)cc5)c4)C3C(=O)N2Cc2ccccc2)c1` (stereo not given) here?
Its Potency is inconclusive: 10.3 µM [cytotoxic, partial curve].
